The target in test [1] is T1, GC (endogenous, PLC-PRF-5 cells) (human (endogenous in PLC-PRF-5)) (UniProt P02774).
T1 sequence: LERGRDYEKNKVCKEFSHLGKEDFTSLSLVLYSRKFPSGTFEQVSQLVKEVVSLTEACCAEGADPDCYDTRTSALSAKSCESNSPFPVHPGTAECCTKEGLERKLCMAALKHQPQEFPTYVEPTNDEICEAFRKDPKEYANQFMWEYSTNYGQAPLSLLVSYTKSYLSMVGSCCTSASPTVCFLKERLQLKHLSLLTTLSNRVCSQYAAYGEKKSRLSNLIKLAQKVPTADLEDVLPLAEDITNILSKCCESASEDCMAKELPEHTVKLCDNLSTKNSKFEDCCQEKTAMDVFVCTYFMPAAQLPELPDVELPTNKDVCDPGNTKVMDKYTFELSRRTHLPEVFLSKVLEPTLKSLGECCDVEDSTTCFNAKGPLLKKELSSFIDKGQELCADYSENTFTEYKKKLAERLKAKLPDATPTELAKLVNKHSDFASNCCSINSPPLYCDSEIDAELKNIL
As to the kind of experiment: co-IP.

Amino acid sequences for entries named in this document (tags omitted).
UniProt Q9UHP3: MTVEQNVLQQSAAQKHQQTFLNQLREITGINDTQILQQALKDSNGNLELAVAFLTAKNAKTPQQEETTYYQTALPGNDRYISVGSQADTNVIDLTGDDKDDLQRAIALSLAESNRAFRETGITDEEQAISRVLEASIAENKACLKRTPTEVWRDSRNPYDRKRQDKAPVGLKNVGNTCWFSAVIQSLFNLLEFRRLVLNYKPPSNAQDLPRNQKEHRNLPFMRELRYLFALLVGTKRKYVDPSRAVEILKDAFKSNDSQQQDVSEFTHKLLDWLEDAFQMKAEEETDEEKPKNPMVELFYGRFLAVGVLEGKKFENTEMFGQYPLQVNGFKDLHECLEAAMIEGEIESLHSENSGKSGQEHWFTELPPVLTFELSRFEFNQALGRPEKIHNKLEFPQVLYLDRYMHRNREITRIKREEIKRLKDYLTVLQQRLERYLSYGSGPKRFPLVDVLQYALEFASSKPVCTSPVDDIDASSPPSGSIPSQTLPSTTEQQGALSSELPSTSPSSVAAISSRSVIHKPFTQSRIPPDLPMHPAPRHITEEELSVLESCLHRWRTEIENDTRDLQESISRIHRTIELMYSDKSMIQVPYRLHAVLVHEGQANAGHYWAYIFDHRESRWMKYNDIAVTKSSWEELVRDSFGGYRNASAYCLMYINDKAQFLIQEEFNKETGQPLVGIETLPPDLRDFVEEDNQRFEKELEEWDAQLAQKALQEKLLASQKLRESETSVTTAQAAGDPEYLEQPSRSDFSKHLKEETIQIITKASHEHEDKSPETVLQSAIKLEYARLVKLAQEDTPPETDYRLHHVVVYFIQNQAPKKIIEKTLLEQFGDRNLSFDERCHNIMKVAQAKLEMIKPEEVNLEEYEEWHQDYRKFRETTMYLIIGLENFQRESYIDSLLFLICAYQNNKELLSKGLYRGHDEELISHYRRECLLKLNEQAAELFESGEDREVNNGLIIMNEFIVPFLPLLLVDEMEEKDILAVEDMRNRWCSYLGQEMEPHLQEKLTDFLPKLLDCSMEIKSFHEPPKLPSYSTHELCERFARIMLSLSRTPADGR

Test [2] concerns the target T1, GC (endogenous, PLC-PRF-5 cells) (human (endogenous in PLC-PRF-5)). In words: proximity ligation.
Test [3] has the same target. In words: co-IP. The source holds these as a separate data set.
The target is the same in test [4]. In words: proximity ligation. This is another data set of the same source.
Test [5] concerns the target T2, DNase1L3 protein (SPR and MST) (UniProt Q13609).
T2 sequence: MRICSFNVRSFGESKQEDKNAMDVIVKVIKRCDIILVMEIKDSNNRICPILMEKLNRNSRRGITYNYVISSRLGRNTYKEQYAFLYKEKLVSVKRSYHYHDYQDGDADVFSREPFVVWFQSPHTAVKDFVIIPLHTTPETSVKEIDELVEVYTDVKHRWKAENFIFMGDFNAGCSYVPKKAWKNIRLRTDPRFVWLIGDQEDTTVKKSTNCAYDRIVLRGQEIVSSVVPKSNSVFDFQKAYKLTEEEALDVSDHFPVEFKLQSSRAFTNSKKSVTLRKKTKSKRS
As to the kind of experiment: SPR.

Test [6] concerns the target T2, DNase1L3 protein (SPR and MST). As to the kind of experiment: MST.

Results are given in words; binding and its absence hold for the method and conditions named. For part of these data: Binding seen in cells or lysates may run through a third protein. Some results given as binding are weak or reduced against the parent protein; the word gives no strength.

For “USP25 (from UniProt Q9UHP3 1-1055) (enzyme)”, the binding entry in test [1] and in test [2] was “binds” each time.

B1: DNase1L3 (endogenous, PLC-PRF-5 cells) (enzyme, UniProt Q13609 21-305)
chain: T2 sequence
For the molecule B1, the binding entry in test [3] and in test [4] was “binds” throughout.

B2: GC protein (SPR and MST) (protein, UniProt P02774 17-474)
chain: T1 sequence
As for B2, the binding result in test [5] and in test [6] was “binds” each time.

These data come from paper doi:10.1101/2023.08.30.555532.
